US20090111769A1, “Antithrombotic Compound” (priority 2005, published 2009)
Counter-ions that a name gives are not always drawn. For at least one compound, name, drawing or mass did not settle the structure.

Assays:
[1] = tested on: factor Xa; assay: In vitro test for determination of the anti-factor Xa activity in human plasma (amidolytic, S2222); assay type: biochemical; conditions: against calibration curve of standard heparin
[2] = tested on: human platelet aggregation induced by ADP; assay: In vitro test for inhibition of human platelet aggregation induced by ADP (platelet rich plasma); assay type: cell-based; conditions: human PRP, IC50 per method
Description: • 1. Sysmex blood cell counter model KX-21. • 2. […] Absorption is measured with the Labsystems iEMS program. • 3. Blood collection system 600 mL with needle, art P4203 (NPBI). • 4.
The optical density (OD620) is then measured at 620 nm. […] This is to verify the stability of the platelets (absence of spontaneous platelet aggregation). […] Between two measurements, the plate is shaking for 40 seconds at 1,000 rpm. Each test compound is investigated in at least 2 experiments using PRP from different volunteers.
The mean OD at each compound concentration (including vehicle) is calculated at t=0 min and t=10 min. The percentage inhibition at each concentration is calculated using the formula: […]

[3] = tested on: human platelet aggregation induced by TRAP; assay: In vitro test for inhibition of human platelet aggregation induced by TRAP (washed platelets); assay type: cell-based; conditions: IC50 per method
Description: This aggregation can be determined by measuring the optical density of the WPL. The in vitro test described here is used to analyze the activity of a test compound to inhibit TRAP-induced aggregation of human platelets. […] Between two measurements, the plate is shaking for 40 seconds at 1,000 rpm.

[4] = tested on: guinea pig platelet aggregation induced by ADP; assay: In vitro test for inhibition of guinea pig platelet aggregation induced by ADP (platelet rich plasma); assay type: cell-based; conditions: guinea pig PRP, IC50 per method

Question: `CO[C@H]1O[C@H](COS(=O)(=O)O)[C@@H](O[C@@H]2O[C@@H](C(=O)O)[C@@H](O[C@H]3O[C@H](COS(=O)(=O)O)[C@@H](O[C@@H]4O[C@H](C(=O)O)[C@@H](O[C@H]5O[C@H](COS(=O)(=O)O)[C@@H](OCCOCCOCCOCCNC(=O)COCCOCCOCCOCCNC(=O)c6cccc(S(=O)(=O)N[C@@H](Cc7ccc(OCCCCC8CCNCC8)cc7)C(=O)O)c6)[C@H](OC)[C@H]5OC)[C@H](OC)[C@H]4OC)[C@H](OS(=O)(=O)O)[C@H]3OS(=O)(=O)O)[C@H](OC)[C@H]2OC)[C@H](OS(=O)(=O)O)[C@H]1OS(=O)(=O)O` [Compound 3, sodium salt] was tested. Which “Anti-Xa U/umol Human plasma pH 7.4” value [1] did it give?
Answer: 1351 U/umol

Question: And the IC50 [2]?
Answer: 92 nM

Question: What about the IC50 [3] of the same molecule?
Answer: 65 nM

Question: And the IC50 [4]?
Answer: 127 nM
